Results reported in paper PMC7819943, “Rice protein-binding microarrays: a tool to detect cis-acting elements near promoter regions in rice”.
The list shows a part of the results.

Protein sequences, listed by entry. Tags and fused reporters are not part of them.
UniProt Q0JBA9, entry or part of it: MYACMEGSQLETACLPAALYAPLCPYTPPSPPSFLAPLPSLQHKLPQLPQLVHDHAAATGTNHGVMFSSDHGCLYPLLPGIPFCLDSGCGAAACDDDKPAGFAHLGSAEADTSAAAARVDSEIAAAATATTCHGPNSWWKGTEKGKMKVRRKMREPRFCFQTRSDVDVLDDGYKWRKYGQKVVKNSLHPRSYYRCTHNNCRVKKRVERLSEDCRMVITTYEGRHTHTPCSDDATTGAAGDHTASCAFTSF

target: OsWRKY34 (Oryza sativa, UniProt Q0JBA9 1-250); assay: protein-binding microarray (RPBM); PBS, 2% BSA, 51.3 ng/ul salmon testes DNA, 50 uM zinc acetate, 200 nM TF, 25 C, 1 h; high values mean tight binding; conditions: protein: recombinant; tags: N-terminal polyhistidine and DsRed monomer fusion (pET32a); label: CyDye5-dUTP incorporated in the synthesized complementary strand; 3' TTTTT single-stranded linker to array surface; dsDNA, one strand shown
In short: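 Transcription factors were each fused at the N-terminus to a polyhistidine tag plus DsRed and expressed in E. coli BL21-CodonPlus before Ni–NTA purification. Binding to a double-stranded custom Agilent array was carried out with 200 nM protein at 25 °C for 1 h in PBS, 2% BSA, salmon testes DNA and 50 µM zinc acetate. The binding signal is per-feature fluorescence intensity, in arbitrary units, on an Axon 4000B scanner.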

Row | Sequence | binding signal
1 | CTTCTACTCACTTGTTTTTCACGCGTACACTTTAGGAATTCGGAGTCACCTAGTGCAG | 9750 fluorescence intensity (a.u.)
2 | CGAGAAAATTGTTCCCCGATCGTGCTTATTCAAATCTACGCGGAGTCACCTAGTGCAG | 8150 fluorescence intensity (a.u.)
3 | ATTCTTTTATCTGCTCTTCCATTTCATGCCATGTTGATATCGGAGTCACCTAGTGCAG | 11300 fluorescence intensity (a.u.)
4 | ATCACGAACAATCGAACAACGTATAAACACATGCTTCTACCGGAGTCACCTAGTGCAG | 8960 fluorescence intensity (a.u.)
5 | GGCAAGGGATGTGTGATATGTCTCGTTTGAAGTTTTTTTTCGGAGTCACCTAGTGCAG | 11500 fluorescence intensity (a.u.)
6 | CCATCTTCGTCTTGAGACCGTTCGTGCTCTTATGATTTACCGGAGTCACCTAGTGCAG | 9140 fluorescence intensity (a.u.)
7 | GACTAACAGTTTTATGGGTCTTTTAGGGTGGAGTGGAGCTCGGAGTCACCTAGTGCAG | 11000 fluorescence intensity (a.u.)
8 | CCCGACTCCGTATGCCTTGCCTGTGCTGCGTTCACCTATGCGGAGTCACCTAGTGCAG | 8680 fluorescence intensity (a.u.)
9 | CTGTGTAATTGGTTTTTTTTCCTACATTTAATACTCCATACGGAGTCACCTAGTGCAG | 11900 fluorescence intensity (a.u.)
10 | ACTTGTATGTAAGTTTCACGTAATTTTGAATCGTCAGATCCGGAGTCACCTAGTGCAG | 9020 fluorescence intensity (a.u.)
11 | AGATGAAAGGGGTTTGTGTGTCTTGTGCTATGCTTAAATTCGGAGTCACCTAGTGCAG | 12400 fluorescence intensity (a.u.)
12 | TTGCAAAGGATCCGGATCCAACTATTAATGTCGCTGCAATCGGAGTCACCTAGTGCAG | 8270 fluorescence intensity (a.u.)
13 | AATCTGTTTTTTGCTTTTTTGCCCTTTTCACGGTTTTTCCCGGAGTCACCTAGTGCAG | 10800 fluorescence intensity (a.u.)
14 | GTTGTTTGTGGTAGCGCTCTTTTTACAATTCCACATATTTCGGAGTCACCTAGTGCAG | 15300 fluorescence intensity (a.u.)
15 | ACAAAATTTTCATCTCTTTCATGGATACGAATACGCTGCACGGAGTCACCTAGTGCAG | 8140 fluorescence intensity (a.u.)
16 | ACCACCACCGCCATCAACGCCACCAACGTCGCCGCCGCCGCGGAGTCACCTAGTGCAG | 11000 fluorescence intensity (a.u.)
17 | AGGGTTTGGGGTCAGCTACTTGGAACATTTGAAAATGGAACGGAGTCACCTAGTGCAG | 10200 fluorescence intensity (a.u.)
18 | GCCCATAACTACTCTACCGCGCGTCTCCAGCCCACACGGACGGAGTCACCTAGTGCAG | 9180 fluorescence intensity (a.u.)
19 | TGCGGGTGTTGACCGGCCATATATATCTCGTAGACCTGCACGGAGTCACCTAGTGCAG | 8610 fluorescence intensity (a.u.)
20 | CCTTTTATTTCTCTTTAGATTTTTTATTTTGCAGTACATTCGGAGTCACCTAGTGCAG | 9420 fluorescence intensity (a.u.)
21 | TGAATTGACCATCAGATTTGTCGATGTTTTTGTCATCTCGCGGAGTCACCTAGTGCAG | 8300 fluorescence intensity (a.u.)
22 | CTCCCTGGCGGCGCCACCCGTTTCTCTAATGCCGTCTTCTCGGAGTCACCTAGTGCAG | 9440 fluorescence intensity (a.u.)
23 | ACTCTCATGCTCCTACTGTCCTCATTTGAACACATGTACACGGAGTCACCTAGTGCAG | 11000 fluorescence intensity (a.u.)
24 | ACATTGCTGATCTTGTCTATTCTTCATACAATATAAGTTTCGGAGTCACCTAGTGCAG | 11200 fluorescence intensity (a.u.)
25 | CTGCGTTGGGTGCTGCCATTATATCCATTCCTCTCGCCACCGGAGTCACCTAGTGCAG | 8510 fluorescence intensity (a.u.)
26 | GGTTGTATGGTGTGCCTTTTGAGGGAAAGAGATGCAAATTCGGAGTCACCTAGTGCAG | 12900 fluorescence intensity (a.u.)
27 | CTACTCCGGCCGCCTCGTGTTCAGCTCCGCCGGCGCCGCGCGGAGTCACCTAGTGCAG | 13000 fluorescence intensity (a.u.)

Rewritten as tab-separated lines: part of the list above.
Row	Sequence	binding signal
12	TTGCAAAGGATCCGGATCCAACTATTAATGTCGCTGCAATCGGAGTCACCTAGTGCAG	8270 fluorescence intensity (a.u.)
21	TGAATTGACCATCAGATTTGTCGATGTTTTTGTCATCTCGCGGAGTCACCTAGTGCAG	8300 fluorescence intensity (a.u.)

Going on with the list:

Row | Sequence | binding signal
28 | GTTTATAAACTTAGTCAAACTTGAAACAGTTTGACTTTGACGGAGTCACCTAGTGCAG | 12400 fluorescence intensity (a.u.)
29 | TCCTCCTACTTGCACCGCAGCCGCAGCCGCAGCCCACCACCGGAGTCACCTAGTGCAG | 8200 fluorescence intensity (a.u.)
30 | ACGGGGTAGGGTGGGGAGGGGAAATAGGAGGAAGACGGGTCGGAGTCACCTAGTGCAG | 12000 fluorescence intensity (a.u.)
31 | CAGAGTGGACTTATTCCTTTCATTTTTCGATTTTCGTTGCCGGAGTCACCTAGTGCAG | 9030 fluorescence intensity (a.u.)
32 | GCCGTGCGCGCGACGGAGGCGACAAGCGTGGTGAAGTGGTCGGAGTCACCTAGTGCAG | 11800 fluorescence intensity (a.u.)
33 | GTCGTTCCTCTGCCTCGTGGGCCTTGTGGCCGGCAGCCGGCGGAGTCACCTAGTGCAG | 8360 fluorescence intensity (a.u.)
34 | TGTGCTTACCTAGTATAAATCTTTTCCTGTTATATTTTTCCGGAGTCACCTAGTGCAG | 9210 fluorescence intensity (a.u.)
35 | ACCTGTCGGCACCGGGCGCGTAGCGCGTTCACGCCTCATCCGGAGTCACCTAGTGCAG | 8050 fluorescence intensity (a.u.)
36 | GGGCGGCTCCCCGGCGACCCCGCTCGGCCACCTCCGCCCGCGGAGTCACCTAGTGCAG | 8670 fluorescence intensity (a.u.)
37 | GGGTGTGATCCATCTTATTCGTCTCACAAAATTCTTTTATCGGAGTCACCTAGTGCAG | 12100 fluorescence intensity (a.u.)
38 | TGAAATTTTTCTCTGGGTTGGGTGTTCGGTGCAAGGCTTTCGGAGTCACCTAGTGCAG | 11000 fluorescence intensity (a.u.)
39 | TCGGCGCAGCGGAGGGAGGGGAGGAAGGGTTTTGGAATTACGGAGTCACCTAGTGCAG | 8120 fluorescence intensity (a.u.)
40 | CTCTCCTCTGATCCTCTCTAATCATTCGTTGATTTCATTCCGGAGTCACCTAGTGCAG | 8930 fluorescence intensity (a.u.)
41 | CACTCTCGTACCCACTTCAGTTTCTATAGGAGTTAGCTCTCGGAGTCACCTAGTGCAG | 10200 fluorescence intensity (a.u.)
42 | GTGGGCTCTCTCGTTGGGTTGCTATCCGTCCACCCGTCCACGGAGTCACCTAGTGCAG | 9020 fluorescence intensity (a.u.)
43 | CTCCCACCCCAGCAGCGCCGCCGCCGCCGCCGCCGCCGCCCGGAGTCACCTAGTGCAG | 10300 fluorescence intensity (a.u.)
44 | GATCCATCCATCCACCGTGTCTTCTCTTCCCTCTCCAATGCGGAGTCACCTAGTGCAG | 8800 fluorescence intensity (a.u.)
45 | AGATTTCAATATTGTGATTTATCTATTCATGTGTTTCAATCGGAGTCACCTAGTGCAG | 9980 fluorescence intensity (a.u.)
46 | AAATTTGTTCTCTTGTCATTTTTTATTATTATATGCACATCGGAGTCACCTAGTGCAG | 8550 fluorescence intensity (a.u.)
47 | AATTTACTTCCCTTACCTATTTCTTCTACATCTTACTCCTCGGAGTCACCTAGTGCAG | 8930 fluorescence intensity (a.u.)
48 | CACATATCCACCCACCCAGCACACAGACAGCAGCGACACACGGAGTCACCTAGTGCAG | 8940 fluorescence intensity (a.u.)
49 | GTTCTTCGTCGCCTCCATCCACATCGTCGTCGCCACCACCCGGAGTCACCTAGTGCAG | 11300 fluorescence intensity (a.u.)
50 | CAAGATGGGTCGGGTTGGGTGGGGTTACTCGCACTAGCACCGGAGTCACCTAGTGCAG | 22300 fluorescence intensity (a.u.)
51 | TCGCACGCCAAATTCACACGTGACAGCTACCGTCTTCTCGCGGAGTCACCTAGTGCAG | 8760 fluorescence intensity (a.u.)
52 | TTTCTTGGTTCCTGTGTCTAAGCCAGCTGTAAACTTACAACGGAGTCACCTAGTGCAG | 8450 fluorescence intensity (a.u.)
53 | TCGGGTCGGTCCGCGCCGCCGCGAACCTCTCGTCCTCCATCGGAGTCACCTAGTGCAG | 8470 fluorescence intensity (a.u.)
54 | ACTGAACATGTTTGACCGTTCGTCTTATTCAAAAATTTTTCGGAGTCACCTAGTGCAG | 11200 fluorescence intensity (a.u.)
